Reference: patent US20030109051A1, “Spin trap for use in biological systems” (RANDOX LABORATORIES LTD, priority 2001, published 2003)
For at least one compound, name, drawing or mass did not settle the structure.

Experiment: Reaction of nitric oxide with spin traps, ESR time course (chemical system)
Method: ESR spectra were obtained using a prototype spectrometer (Jeol (U.K.) Ltd., Welwyn Garden City, England) equipped with a TED11 cylindrical cavity. Samples were analysed at room temperature in a WG-LC-11 quartz flat cell (Wilmad-Glass, Buena, N.J.). In general, the instrument parameters were: microwave frequency 9.2 GHz, microwave power 4 mW, centre field (CF) 336.7 mT, sweep width (SW)±5 mT, number of data points 4095, modulation frequency 100 kHz. For the spin traps reacted with nitric oxide: sweep time (ST) 150 s, time constraint (TC) 0.3 s, modulation width (MW) 0.2 mT. A JEOL ES-DM1 digital manganese oxide marker (0.03 mm of the glass tube inserted per unit on the dial setting) with a dial setting of 500 was used to ensure reproducibility between samples and to identify the position of the signals in the microwave field.
Samples of DBBNB, DMNB and TMNB were weighed into vacutainers, which were then evacuated Toluene and Tris-HCl buffer, 0.01 M, pH 7.4, were deoxygenated by bubbling with nitrogen gas for 15 min. Deoxygenated toluene was added to DBBNB, DMNB and TMNB, using a gas-tight syringe, to give a final concentration of 0.15 M in the reaction mixture.
The apparatus shown in FIG. 5 was flushed with nitrogen for 15 min. […]

For `CC(C)(C)c1cc(Br)c(N=O)c(Br)c1` [DBBNB, 2,6-Dibromo-4-t-butylnitrosobenzene], the “trapping of nitric oxide (spin trap for nitric oxide)” value (chemical system, spin trap in toluene, NO-saturated water) was “shown to act as a spin trap for nitric oxide” and the “time at which reaction with nitric oxide reached completion” value (spin trap 0.15 M in toluene, NO 1 mM, room temperature) was “approximately 5 hr”.
